This assay deals with T1, endogenous Vav1 (human (endogenous in H358 and H441)) (UniProt P15498).
T1 sequence: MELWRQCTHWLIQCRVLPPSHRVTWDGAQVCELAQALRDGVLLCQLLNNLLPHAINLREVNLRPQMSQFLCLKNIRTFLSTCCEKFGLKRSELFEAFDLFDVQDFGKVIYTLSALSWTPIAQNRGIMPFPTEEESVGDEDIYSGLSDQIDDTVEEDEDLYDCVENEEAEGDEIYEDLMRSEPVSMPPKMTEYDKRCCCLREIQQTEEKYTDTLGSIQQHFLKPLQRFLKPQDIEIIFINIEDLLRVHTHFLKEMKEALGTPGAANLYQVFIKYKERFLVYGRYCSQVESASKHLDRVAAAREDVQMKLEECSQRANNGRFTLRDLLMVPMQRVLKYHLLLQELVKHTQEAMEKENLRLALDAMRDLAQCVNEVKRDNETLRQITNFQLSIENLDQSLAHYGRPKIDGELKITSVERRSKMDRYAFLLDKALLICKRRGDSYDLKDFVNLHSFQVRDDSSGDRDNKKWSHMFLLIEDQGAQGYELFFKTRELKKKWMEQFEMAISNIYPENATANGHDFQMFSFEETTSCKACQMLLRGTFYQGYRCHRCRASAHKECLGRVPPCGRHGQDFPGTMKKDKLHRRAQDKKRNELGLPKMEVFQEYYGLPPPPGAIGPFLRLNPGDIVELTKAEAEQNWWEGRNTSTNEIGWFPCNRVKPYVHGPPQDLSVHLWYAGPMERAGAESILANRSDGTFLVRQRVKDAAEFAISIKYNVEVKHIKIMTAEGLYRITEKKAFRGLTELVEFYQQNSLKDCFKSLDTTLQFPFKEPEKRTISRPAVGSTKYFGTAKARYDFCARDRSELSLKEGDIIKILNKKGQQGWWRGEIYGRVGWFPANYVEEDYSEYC
Description: co-IP; total cell extracts of H358 and H441 cells precipitated with anti-Vav1 Ab or control IgG (1% NP-40 lysis buffer); partners detected by sequential immunoblotting. A general note: A western blot detects proteins with antibodies after separation by electrophoresis.

No constants are given. Whether binding was seen depends on the method and setting. Binding seen in cells or lysates may run through a third protein. A result given as binding can be weak or reduced; the word gives no strength.

As to “E-cadherin (human (endogenous in H358 and H441))”, the binding entry was “binds”.
For “α-catenin (human (endogenous in H358 and H441))”, the binding result is on record as “binds”.

The record behind these values is publication PMC4385868.
